Data taken from the supplement of paper PMC11348887.
Counter-ions that a name gives are not always drawn. The list shows a part of the results. Most values lie at the level of the controls, where differences are scatter.

tested on: hPSC-derived cortical neurons (WA09); experiment: nucleus area z-score vs screen plate; higher = larger nuclei (more mature); conditions: 5 µM; treatment: days 7-14 after plating, readout day 21

**Q.** How did the nucleus area z-score turn out when CCNC(=O)c1noc(-c2cc(C(C)C)c(O)cc2O)c1-c1ccc(CN2CCOCC2)cc1 was run?
**A.** The nucleus area z-score was -2.7.

**Q.** How did the nucleus area z-score turn out when CC(C)C[C@H](NP(=O)(O)O[C@@H]1O[C@@H](C)[C@H](O)[C@@H](O)[C@H]1O)C(=O)N[C@@H](Cc1c[nH]c2ccccc12)C(=O)O [Phosphoramidon Disodium Salt] was run?
**A.** The nucleus area z-score was 0.0607.

**Q.** With OC[C@@H](O)[C@@H](O)CO [Erythritol] as the compound, how does the nucleus area z-score read?
**A.** The nucleus area z-score was 0.407.

**Q.** With CN(Cc1ccc(C(C)(C)C)cc1)Cc1cccc2ccccc12 [Butenafine HCl] as the compound, how does the nucleus area z-score read?
**A.** The nucleus area z-score was -0.0939.

**Q.** Which nucleus area z-score does the source give for COC(=O)Nc1nc2cc(C(=O)c3ccccc3)ccc2[nH]1 [Mebendazole] here?
**A.** Its nucleus area z-score is -3.05.

**Q.** CN1CCN(CCOc2cc(OC3CCOCC3)c3c(Nc4c(Cl)ccc5c4OCO5)ncnc3c2)CC1 [Saracatinib (AZD0530)] was tested. Which nucleus area z-score did it give?
**A.** The nucleus area z-score was 1.09.

**Q.** CN(N=O)C(=O)NC1C(O)OC(CO)C(O)C1O (stereo not given) [Streptozotocin (STZ)] was tested. Which nucleus area z-score did it give?
**A.** Its nucleus area z-score is -0.0252.

**Q.** With C[C@]12CCC(=O)C=C1CC[C@@H]1[C@@H]2[C@@H](O)C[C@@]2(C)[C@H]1CC[C@]2(O)C(=O)CO [Hydrocortisone] as the compound, how does the nucleus area z-score read?
**A.** The nucleus area z-score was -0.0443.

**Q.** How did the nucleus area z-score turn out when CC[C@H]1OC(=O)[C@H](C)[C@@H](O[C@H]2C[C@@](C)(OC)[C@@H](O)[C@H](C)O2)[C@H](C)[C@@H](O[C@@H]2O[C@H](C)C[C@H](N(C)C)[C@H]2O)[C@](C)(O)C[C@@H](C)C(=O)[C@H](C)[C@H]2OC(=O)O[C@@]21C [Erythromycin Cyclocarbonate] was run?
**A.** The nucleus area z-score was 0.964.

**Q.** How did the nucleus area z-score turn out when CCC(=O)OCC(=O)[C@@]1(OC(=O)CC)[C@@H](C)C[C@H]2[C@@H]3CCC4=CC(=O)C=C[C@]4(C)[C@@]3(F)[C@@H](O)C[C@@]21C [Betamethasone Dipropionate] was run?
**A.** Its nucleus area z-score is 0.748.

**Q.** Which nucleus area z-score does the source give for CC(=O)O[C@H]1C(=O)[C@@]2(C)[C@H]([C@H](OC(=O)c3ccccc3)[C@]3(O)C[C@H](OC(=O)[C@H](O)[C@@H](NC(=O)c4ccccc4)c4ccccc4)C(C)=C1C3(C)C)[C@]1(OC(C)=O)CO[C@@H]1C[C@@H]2O [Paclitaxel] here?
**A.** Its nucleus area z-score is -0.194.

**Q.** For CCCCN(Cc1ccc(C(=O)NO)cc1)C(=O)Nc1ccccc1 [Nexturastat A], which nucleus area z-score is on record?
**A.** The nucleus area z-score was -0.359.

**Q.** Which nucleus area z-score does the source give for Cc1ccc(NC(=O)c2ccc(CN3CCN(C)CC3)cc2)cc1Nc1nccc(-c2cccnc2)n1 [Imatinib (STI571)] here?
**A.** The nucleus area z-score was -3.22.

**Q.** CNCc1ccc(-c2cc(-c3nc(-c4ccc(S(=O)(=O)C(C)C)cc4)cnc3N)on2)cc1 was tested. Which nucleus area z-score did it give?
**A.** The nucleus area z-score was -13.

**Q.** O=C(O)CNC(=O)c1nc(Cl)c2ccccc2c1O was tested. Which nucleus area z-score did it give?
**A.** Its nucleus area z-score is -0.00601.

**Q.** Which nucleus area z-score does the source give for CCCCCCCCCCCCCCCCCCOP(=O)([O-])OC1CC[N+](C)(C)CC1 [Perifosine (KRX-0401)] here?
**A.** Its nucleus area z-score is -0.161.

**Q.** For C[C@H]1O[C@H](O[C@H]2[C@H](O)[C@@H](O)[C@@H](O[C@H]3[C@H](O)[C@@H](O)C(O)O[C@@H]3CO)O[C@@H]2CO)[C@H](O)[C@@H](O)[C@@H]1N[C@H]1C=C(CO)[C@@H](O)[C@H](O)[C@H]1O (stereo not given in full) [Acarbose], which nucleus area z-score is on record?
**A.** Its nucleus area z-score is -0.246.

**Q.** With Cc1cc(OCCCS(C)(=O)=O)cc(C)c1-c1cccc(COc2ccc3c(c2)OC[C@H]3CC(=O)O)c1 as the compound, how does the nucleus area z-score read?
**A.** The nucleus area z-score was 1.49.

**Q.** How did the nucleus area z-score turn out when CCOC(=O)[C@H](CCc1ccccc1)N[C@@H](C)C(=O)N1C(=O)N(C)C[C@H]1C(=O)O [Imidapril HCl] was run?
**A.** The nucleus area z-score was -0.451.

**Q.** Which nucleus area z-score does the source give for CCCC(=O)Nc1ccc(OCC(O)CNC(C)C)c(C(C)=O)c1 (stereo not given) [Acebutolol HCl] here?
**A.** Its nucleus area z-score is -0.645.

**Q.** For CN1C(C(=O)Nc2ccccn2)=C(O)c2ccccc2S1(=O)=O [Piroxicam], which nucleus area z-score is on record?
**A.** Its nucleus area z-score is 0.692.

**Q.** How did the nucleus area z-score turn out when Cc1ccc(C(=O)c2ccc(CC(=O)O)n2C)cc1 [Tolmetin Sodium] was run?
**A.** The nucleus area z-score was 0.873.

**Q.** With C[C@@H]1[C@H](O)[C@@H](C)/C=C/C=C/C=C/C=C/C=C/C=C/C=C/[C@H](O[C@@H]2O[C@H](C)[C@@H](O)[C@H](N)[C@@H]2O)C[C@@H]2O[C@](O)(C[C@@H](O)C[C@@H](O)[C@H](O)CC[C@@H](O)C[C@@H](O)CC(=O)O[C@H]1C)C[C@H](O)[C@H]2C(=O)O [Amphotericin B] as the compound, how does the nucleus area z-score read?
**A.** Its nucleus area z-score is 0.142.

**Q.** [I-].[K+] [Potassium Iodide] was tested. Which nucleus area z-score did it give?
**A.** Its nucleus area z-score is -0.578.

**Q.** How did the nucleus area z-score turn out when CN(CCOc1ccc(CC2SC(=O)NC2=O)cc1)c1ccccn1 (stereo not given) [Rosiglitazone] was run?
**A.** Its nucleus area z-score is -0.00733.

**Q.** How did the nucleus area z-score turn out when CCn1c(-c2nonc2N)nc2c(C#CC(C)(C)O)ncc(OC[C@H]3CCCNC3)c21 was run?
**A.** Its nucleus area z-score is -2.95.

**Q.** O=C(O)/C=C/c1ccc(Cn2ccnc2)cc1 [Ozagrel HCl] was tested. Which nucleus area z-score did it give?
**A.** Its nucleus area z-score is 0.269.

**Q.** Which nucleus area z-score does the source give for NC(CO)(CO)CO [Trometamol] here?
**A.** Its nucleus area z-score is -0.781.

**Q.** How did the nucleus area z-score turn out when Nc1ccc(S(=O)(=O)Nc2ncccn2)cc1 [Sulfadiazine] was run?
**A.** The nucleus area z-score was 0.184.

**Q.** Which nucleus area z-score does the source give for CC(C)c1ccc2c(c1)c(SC(C)(C)C)c(CC(C)(C)C(=O)O)n2Cc1ccc(Cl)cc1 here?
**A.** Its nucleus area z-score is -0.326.

**Q.** For CCCSc1ccc2[nH]c(NC(=O)OC)nc2c1 [Albendazole], which nucleus area z-score is on record?
**A.** The nucleus area z-score was -0.0996.

**Q.** How did the nucleus area z-score turn out when CCN1CCCC1CNC(=O)c1cc(S(N)(=O)=O)ccc1OC (stereo not given) [Sulpiride] was run?
**A.** Its nucleus area z-score is 0.00127.

**Q.** With C[C@H](Cn1cnc2c(N)ncnc21)OCP(=O)(O)O [Tenofovir] as the compound, how does the nucleus area z-score read?
**A.** Its nucleus area z-score is 0.169.

**Q.** CCc1cc2c(cc1CC)CC(NC[C@H](O)c1ccc(O)c3[nH]c(=O)ccc13)C2 [Indacaterol Maleate] was tested. Which nucleus area z-score did it give?
**A.** Its nucleus area z-score is 0.0181.

**Q.** For O=C(Cc1cccc(OC(F)(F)F)c1)Nc1ccc(CCCCc2nnc(NC(=O)Cc3ccccn3)s2)nn1, which nucleus area z-score is on record?
**A.** The nucleus area z-score was -0.401.

**Q.** Which nucleus area z-score does the source give for COCCOc1ccc2c(c1)ncn2-c1ccc2cccc(N3CCC(N)CC3)c2n1 here?
**A.** Its nucleus area z-score is 0.498.

**Q.** Which nucleus area z-score does the source give for CC1(C)S[C@@H]2[C@H](NC(=O)[C@H](N)c3ccc(O)cc3)C(=O)N2[C@H]1C(=O)O [Amoxicillin Sodium] here?
**A.** The nucleus area z-score was 2.11.

**Q.** With CN(C/C=C/C#CC(C)(C)C)Cc1cccc2ccccc12 [Terbinafine] as the compound, how does the nucleus area z-score read?
**A.** The nucleus area z-score was -0.243.

**Q.** For COc1ccc(C2CC(c3ccccc3)=NN2c2ccc(S(N)(=O)=O)cc2)cc1 (stereo not given), which nucleus area z-score is on record?
**A.** Its nucleus area z-score is 0.372.

**Q.** For Cn1cc(-c2ccc3c(c2)CCN3C(=O)Cc2cccc(C(F)(F)F)c2)c2c(N)ncnc21, which nucleus area z-score is on record?
**A.** Its nucleus area z-score is 2.83.
